From patent US20040241164A1 come the findings set out here.

Sequences of proteins named here, by UniProt entry; tags and fusion partners are left off. Residues count along the entry.
UniProt P05067, residues 672-711: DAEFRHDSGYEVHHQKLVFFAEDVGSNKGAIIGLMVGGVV

No constants are given. Whether binding was seen depends on the method and setting. Some entries that bind do so weakly or less than the wild type.

The target in this experiment is soluble Aβ (UniProt P05067). As to the kind of experiment: worded comparison of affinities.

B1: humanized 266 antibody (antibody, human IgG1, kappa, V domains shown)
VH: EVQLVESGGGLVQPGGSLRLSCAASGFTFSRYSMSWVRQAPGKGLELVAQINSVGNSTYYPDTVKGRFTISRDNAKNTLYLQMNSLRAEDTAVYYCASGDYWGQGTLVTVSS
VL: DVVMTQSPLSLPVTLGQPASISCRSSQSLIYSDGNAYLHWFLQKPGQSPRLLIYKVSNRFSGVPDRFSGSGSGTDFTLKISRVEAEDVGVYYCSQSTHVPWTFGQGTKVEIKR
Take B1: the binding entry is given as “binds”.
